Experimental data from the supplement of paper PMC10849652.
The list shows a part of the results.

Amino acid sequences for entries named in this document (tags omitted). A change or cut given only in a name is not applied to a line headed by its entry.
UniProt P22670: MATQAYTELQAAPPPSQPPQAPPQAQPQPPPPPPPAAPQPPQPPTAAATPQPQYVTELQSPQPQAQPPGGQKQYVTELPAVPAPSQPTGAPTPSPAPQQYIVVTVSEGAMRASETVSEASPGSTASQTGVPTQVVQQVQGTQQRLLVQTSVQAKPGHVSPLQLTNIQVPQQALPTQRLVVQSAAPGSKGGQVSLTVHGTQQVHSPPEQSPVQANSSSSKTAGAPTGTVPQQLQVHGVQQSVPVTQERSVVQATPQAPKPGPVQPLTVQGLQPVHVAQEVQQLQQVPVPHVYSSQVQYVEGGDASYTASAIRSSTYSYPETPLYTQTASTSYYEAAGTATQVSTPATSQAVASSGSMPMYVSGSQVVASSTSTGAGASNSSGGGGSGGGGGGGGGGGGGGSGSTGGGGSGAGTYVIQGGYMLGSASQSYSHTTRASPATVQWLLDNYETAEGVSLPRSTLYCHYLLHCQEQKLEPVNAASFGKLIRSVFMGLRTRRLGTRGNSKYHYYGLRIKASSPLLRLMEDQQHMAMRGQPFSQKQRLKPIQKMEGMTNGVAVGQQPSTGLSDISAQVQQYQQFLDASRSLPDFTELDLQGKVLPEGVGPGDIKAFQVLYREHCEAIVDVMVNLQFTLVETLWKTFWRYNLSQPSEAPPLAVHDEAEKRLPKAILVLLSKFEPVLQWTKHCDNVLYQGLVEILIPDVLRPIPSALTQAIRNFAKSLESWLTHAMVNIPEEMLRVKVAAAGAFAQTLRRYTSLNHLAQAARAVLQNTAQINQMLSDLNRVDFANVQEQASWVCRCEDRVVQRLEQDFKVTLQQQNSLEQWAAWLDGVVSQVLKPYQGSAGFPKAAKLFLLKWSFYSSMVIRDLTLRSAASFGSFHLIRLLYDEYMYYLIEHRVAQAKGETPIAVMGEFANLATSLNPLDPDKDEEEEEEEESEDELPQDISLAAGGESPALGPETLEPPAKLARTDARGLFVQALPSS
UniProt P78509: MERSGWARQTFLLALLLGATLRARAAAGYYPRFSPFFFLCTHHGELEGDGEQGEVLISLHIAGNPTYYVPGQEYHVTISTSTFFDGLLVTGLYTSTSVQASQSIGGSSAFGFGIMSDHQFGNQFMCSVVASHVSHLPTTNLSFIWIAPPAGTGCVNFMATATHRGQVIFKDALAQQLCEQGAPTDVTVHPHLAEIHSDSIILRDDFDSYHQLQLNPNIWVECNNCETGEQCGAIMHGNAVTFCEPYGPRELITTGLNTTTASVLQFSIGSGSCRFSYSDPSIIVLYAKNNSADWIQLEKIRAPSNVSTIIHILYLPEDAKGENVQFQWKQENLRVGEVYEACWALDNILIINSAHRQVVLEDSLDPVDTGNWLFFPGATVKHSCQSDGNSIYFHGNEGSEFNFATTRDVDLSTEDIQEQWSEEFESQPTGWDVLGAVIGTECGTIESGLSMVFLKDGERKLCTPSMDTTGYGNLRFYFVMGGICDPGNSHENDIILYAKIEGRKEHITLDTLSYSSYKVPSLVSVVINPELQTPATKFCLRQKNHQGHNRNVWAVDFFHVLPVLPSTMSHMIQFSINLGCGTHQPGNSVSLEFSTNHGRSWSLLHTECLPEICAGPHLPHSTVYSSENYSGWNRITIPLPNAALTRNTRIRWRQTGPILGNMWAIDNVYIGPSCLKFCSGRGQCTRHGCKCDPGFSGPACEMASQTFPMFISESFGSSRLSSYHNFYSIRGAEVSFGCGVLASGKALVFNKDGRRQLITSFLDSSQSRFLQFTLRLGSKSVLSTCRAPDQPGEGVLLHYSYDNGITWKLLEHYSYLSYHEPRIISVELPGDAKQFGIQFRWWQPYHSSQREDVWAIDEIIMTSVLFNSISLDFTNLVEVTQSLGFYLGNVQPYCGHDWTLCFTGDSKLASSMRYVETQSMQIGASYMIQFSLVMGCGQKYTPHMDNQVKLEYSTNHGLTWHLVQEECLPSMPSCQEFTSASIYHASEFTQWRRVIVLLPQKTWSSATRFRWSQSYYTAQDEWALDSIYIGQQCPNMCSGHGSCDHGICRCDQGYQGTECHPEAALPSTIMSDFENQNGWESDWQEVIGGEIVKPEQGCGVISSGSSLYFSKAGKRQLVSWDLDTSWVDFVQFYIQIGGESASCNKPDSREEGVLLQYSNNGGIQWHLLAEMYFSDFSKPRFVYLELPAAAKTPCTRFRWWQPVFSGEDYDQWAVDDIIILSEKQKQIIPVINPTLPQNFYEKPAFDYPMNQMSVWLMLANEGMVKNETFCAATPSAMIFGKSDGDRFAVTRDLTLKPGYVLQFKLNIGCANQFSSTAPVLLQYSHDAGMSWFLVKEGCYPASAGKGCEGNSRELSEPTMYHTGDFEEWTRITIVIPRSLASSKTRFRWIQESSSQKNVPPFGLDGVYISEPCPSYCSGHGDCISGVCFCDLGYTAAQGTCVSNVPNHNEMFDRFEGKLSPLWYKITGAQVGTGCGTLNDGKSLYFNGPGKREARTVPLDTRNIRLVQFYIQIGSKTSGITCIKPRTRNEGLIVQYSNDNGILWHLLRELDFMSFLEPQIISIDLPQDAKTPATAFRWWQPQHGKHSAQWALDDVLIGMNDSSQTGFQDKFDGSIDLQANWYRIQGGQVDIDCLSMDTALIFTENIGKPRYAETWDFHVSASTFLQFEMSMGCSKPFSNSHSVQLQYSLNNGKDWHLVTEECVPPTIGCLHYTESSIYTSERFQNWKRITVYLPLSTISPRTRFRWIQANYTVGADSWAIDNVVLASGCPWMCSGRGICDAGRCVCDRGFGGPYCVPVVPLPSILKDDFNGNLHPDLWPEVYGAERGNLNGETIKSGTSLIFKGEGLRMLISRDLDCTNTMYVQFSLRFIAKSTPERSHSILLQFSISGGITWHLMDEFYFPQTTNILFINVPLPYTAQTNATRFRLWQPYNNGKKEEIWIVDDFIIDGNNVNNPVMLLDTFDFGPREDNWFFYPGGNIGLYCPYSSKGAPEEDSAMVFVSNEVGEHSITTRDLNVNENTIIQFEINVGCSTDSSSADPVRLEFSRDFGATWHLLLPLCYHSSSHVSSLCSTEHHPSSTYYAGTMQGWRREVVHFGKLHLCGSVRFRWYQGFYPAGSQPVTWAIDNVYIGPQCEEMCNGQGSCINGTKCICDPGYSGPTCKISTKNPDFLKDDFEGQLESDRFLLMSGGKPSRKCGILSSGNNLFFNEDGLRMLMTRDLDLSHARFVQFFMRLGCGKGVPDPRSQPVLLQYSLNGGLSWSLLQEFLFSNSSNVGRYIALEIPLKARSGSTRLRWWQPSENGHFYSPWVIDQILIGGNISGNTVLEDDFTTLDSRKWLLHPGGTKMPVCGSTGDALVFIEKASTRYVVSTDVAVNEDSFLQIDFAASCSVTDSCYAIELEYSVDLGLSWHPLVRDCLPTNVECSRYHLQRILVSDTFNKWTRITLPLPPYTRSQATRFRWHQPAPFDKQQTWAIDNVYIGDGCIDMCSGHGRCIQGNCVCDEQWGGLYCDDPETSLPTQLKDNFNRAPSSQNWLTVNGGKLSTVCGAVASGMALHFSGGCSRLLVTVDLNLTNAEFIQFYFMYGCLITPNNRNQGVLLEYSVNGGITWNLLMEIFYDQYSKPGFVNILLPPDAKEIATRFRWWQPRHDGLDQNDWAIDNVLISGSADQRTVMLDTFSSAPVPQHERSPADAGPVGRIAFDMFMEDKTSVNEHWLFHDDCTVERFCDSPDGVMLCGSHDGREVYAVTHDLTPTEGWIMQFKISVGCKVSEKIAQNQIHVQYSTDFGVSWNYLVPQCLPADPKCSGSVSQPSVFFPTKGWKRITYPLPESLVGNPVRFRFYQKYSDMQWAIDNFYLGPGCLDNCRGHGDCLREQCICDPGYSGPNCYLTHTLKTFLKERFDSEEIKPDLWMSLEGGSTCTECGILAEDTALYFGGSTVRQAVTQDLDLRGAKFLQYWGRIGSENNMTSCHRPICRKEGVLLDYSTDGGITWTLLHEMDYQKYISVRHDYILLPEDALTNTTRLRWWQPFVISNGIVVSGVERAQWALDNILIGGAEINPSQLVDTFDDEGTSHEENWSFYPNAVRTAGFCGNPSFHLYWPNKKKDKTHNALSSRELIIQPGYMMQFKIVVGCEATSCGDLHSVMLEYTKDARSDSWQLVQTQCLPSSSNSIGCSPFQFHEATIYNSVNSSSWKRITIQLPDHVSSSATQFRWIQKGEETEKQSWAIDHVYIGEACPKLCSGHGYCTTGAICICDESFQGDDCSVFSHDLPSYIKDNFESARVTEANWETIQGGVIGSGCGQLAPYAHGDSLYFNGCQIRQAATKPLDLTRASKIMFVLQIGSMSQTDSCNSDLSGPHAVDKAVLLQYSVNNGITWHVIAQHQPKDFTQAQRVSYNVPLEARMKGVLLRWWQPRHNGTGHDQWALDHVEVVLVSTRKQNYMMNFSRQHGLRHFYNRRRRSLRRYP
UniProt O00287: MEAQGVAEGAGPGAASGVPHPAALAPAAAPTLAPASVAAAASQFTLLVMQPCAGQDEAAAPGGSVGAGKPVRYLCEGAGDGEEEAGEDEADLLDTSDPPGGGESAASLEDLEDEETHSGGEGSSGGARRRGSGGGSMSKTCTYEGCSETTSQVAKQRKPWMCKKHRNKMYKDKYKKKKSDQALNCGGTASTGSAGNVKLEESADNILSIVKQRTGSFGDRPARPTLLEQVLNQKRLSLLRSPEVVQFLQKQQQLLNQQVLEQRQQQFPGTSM
UniProt Q96D71: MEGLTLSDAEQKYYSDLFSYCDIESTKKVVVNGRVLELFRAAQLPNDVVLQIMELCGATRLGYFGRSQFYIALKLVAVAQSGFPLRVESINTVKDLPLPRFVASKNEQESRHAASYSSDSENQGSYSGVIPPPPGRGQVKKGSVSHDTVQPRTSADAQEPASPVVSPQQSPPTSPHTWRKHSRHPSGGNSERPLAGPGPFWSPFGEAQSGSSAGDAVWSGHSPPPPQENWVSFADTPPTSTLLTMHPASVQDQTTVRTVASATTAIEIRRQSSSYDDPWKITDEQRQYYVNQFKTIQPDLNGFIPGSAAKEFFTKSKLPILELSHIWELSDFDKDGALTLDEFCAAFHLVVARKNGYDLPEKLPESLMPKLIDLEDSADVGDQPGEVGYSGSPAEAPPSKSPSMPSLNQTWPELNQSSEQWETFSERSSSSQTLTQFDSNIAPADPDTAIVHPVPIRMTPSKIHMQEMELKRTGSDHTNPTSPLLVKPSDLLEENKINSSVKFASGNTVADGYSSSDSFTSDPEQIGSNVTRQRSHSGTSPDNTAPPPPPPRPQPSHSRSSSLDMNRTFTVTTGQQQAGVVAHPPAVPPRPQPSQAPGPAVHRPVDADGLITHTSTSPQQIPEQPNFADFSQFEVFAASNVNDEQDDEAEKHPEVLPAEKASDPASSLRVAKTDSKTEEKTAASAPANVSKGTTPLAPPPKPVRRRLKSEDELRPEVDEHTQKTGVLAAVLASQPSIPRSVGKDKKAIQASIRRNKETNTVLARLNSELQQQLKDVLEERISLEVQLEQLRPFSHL
UniProt P98179: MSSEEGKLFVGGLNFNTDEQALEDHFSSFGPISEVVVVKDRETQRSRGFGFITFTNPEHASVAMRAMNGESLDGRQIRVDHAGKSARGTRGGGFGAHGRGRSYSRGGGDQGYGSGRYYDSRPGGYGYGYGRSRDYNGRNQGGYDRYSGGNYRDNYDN
UniProt Q8TAC1: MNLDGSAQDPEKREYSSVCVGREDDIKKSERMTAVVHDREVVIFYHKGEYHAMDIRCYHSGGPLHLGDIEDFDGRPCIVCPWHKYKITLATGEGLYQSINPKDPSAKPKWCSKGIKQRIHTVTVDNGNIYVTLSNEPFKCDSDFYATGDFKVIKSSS
UniProt Q9BTD8: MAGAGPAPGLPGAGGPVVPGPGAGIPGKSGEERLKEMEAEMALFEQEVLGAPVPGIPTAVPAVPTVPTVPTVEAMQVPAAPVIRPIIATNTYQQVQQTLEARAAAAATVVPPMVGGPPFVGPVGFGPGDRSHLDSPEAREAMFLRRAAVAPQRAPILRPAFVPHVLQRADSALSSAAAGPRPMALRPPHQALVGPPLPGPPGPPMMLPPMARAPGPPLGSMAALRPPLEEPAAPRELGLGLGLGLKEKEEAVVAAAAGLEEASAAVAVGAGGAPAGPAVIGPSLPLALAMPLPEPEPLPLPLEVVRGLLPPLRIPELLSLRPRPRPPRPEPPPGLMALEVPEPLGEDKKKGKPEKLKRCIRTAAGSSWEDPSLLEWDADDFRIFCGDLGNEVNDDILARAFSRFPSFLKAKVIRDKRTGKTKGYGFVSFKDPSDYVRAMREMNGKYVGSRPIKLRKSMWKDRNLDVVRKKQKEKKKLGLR

These targets were tested with COc1cc2nc(-c3cc(F)ccc3O)nc(N[C@@H]3CNC[C@H]3C(C)(C)O)c2cc1OC (assay: log2 fold change, soluble protein after heating vs DMSO (PISA); higher = thermal stabilisation; K562 lysate, 10 uM; active = over 0.2 and 3.5 SD of the protein, either way, in both replicates (recomputed)).
Procedure, shortened: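 Thermal stability, expressed as log-two fold change relative to solvent controls, is given from duplicates. Crude K562 extract in PBS pH 7.4 with 1 mM MgCl2, at 1 mg/mL protein, was treated with 10 μM compound for 30 min and heated in aliquots for 3 min across 48°C-58°C. After pooling, adjustment to 0.5% NP-40 at 4°C and centrifugation at 21,000xg for 90 min, supernatant protein was measured by TMTpro 16plex LC-MS/MS with channel sums equalised.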

log2 fold change, inactive:
RBL1 (UniProt P28749) 0.007
RBBP4 (UniProt Q09028) 0
RCOR1 (UniProt Q9UKL0) 0.027
RBM33 (UniProt Q96EV2) -0.021
RFX1 (UniProt P22670) -0.007
RBM28 (UniProt Q9NW13) -0.007
RAVER1 (UniProt E9PAU2) 0.027
RCSD1 (UniProt Q6JBY9) 0.006
RBM39 (UniProt Q14498) -0.007
RFT1 (UniProt Q96AA3) 0.05
RENBP (UniProt P51606) -0.118
RECQL5 (UniProt O94762) 0.09
RELN (UniProt P78509) 0.141
RFXAP (UniProt O00287) 0.142
RASA3 (UniProt Q14644) 0.032
REPS1 (UniProt Q96D71) -0.001
RBM3 (UniProt P98179) -0.008
RCN3 (UniProt Q96D15) -0.015
RASA2 (UniProt Q15283) -0.008
RFESD isoform 2 (UniProt Q8TAC1) 0.016
RBM42 (UniProt Q9BTD8) -0.062
RASA1 (UniProt P20936) 0
RBMX (UniProt P38159) 0.013
RCOR3 isoform 3 (UniProt Q9P2K3) -0.006

A run of entries taken from the entries so far, as a working copy:
log2 fold change, inactive:
RFT1 (UniProt Q96AA3) 0.05
RENBP (UniProt P51606) -0.118
